Laboratory results: paper PMC8024281

Protein sequences, listed by entry. Tags and fused reporters are not part of them.
UniProt P42771: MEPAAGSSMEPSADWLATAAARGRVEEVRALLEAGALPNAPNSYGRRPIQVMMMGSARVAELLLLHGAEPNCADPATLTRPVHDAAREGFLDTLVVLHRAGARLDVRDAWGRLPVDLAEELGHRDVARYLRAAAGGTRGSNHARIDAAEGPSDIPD
UniProt P42772: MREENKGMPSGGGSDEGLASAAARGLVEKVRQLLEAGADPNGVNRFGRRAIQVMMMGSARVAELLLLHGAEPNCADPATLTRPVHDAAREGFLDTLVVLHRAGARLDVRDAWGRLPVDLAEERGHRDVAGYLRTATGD
UniProt P06733: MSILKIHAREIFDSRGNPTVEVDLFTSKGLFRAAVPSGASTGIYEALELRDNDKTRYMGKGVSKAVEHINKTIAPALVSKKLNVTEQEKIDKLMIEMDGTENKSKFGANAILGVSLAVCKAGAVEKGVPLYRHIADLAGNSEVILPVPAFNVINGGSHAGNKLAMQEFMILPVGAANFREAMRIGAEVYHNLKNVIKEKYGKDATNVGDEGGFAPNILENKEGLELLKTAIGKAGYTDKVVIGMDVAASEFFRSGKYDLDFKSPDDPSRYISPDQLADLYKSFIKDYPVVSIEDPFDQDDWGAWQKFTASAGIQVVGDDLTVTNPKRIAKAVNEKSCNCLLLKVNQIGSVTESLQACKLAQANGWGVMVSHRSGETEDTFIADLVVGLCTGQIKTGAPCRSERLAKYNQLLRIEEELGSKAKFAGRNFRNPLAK

What was measured:
[1] = target: Histidine-tagged p16^INK4A (wild type), E. coli-produced (human) (UniProt P42771); assay: affinity purification with mass spectrometry; E. coli-produced bait on Ni-NTA column incubated with total proteins of parental UMUC3; imidazole eluate resolved by two-dimensional electrophoresis; spots absent from the control and the p16 fractions analysed by mass spectrometry; only the target purified
[2] = target: Histidine-tagged p15^INK4B (wild type), E. coli-produced (human) (UniProt P42772); assay: as above

binding [1]: no binding
binding [2]: binds
Substance: enolase-1 (endogenous, UMUC3) (from UniProt P06733 1-434) (enzyme)

These are yes or no findings as the source states them, for the method shown. In cells and extracts the contact can be indirect. Here binding means that the protein was enriched with, or labelled near, the bait; the list need not be complete. For some assays here: No binding means not detected with the bait.
